Measurements as given in publication PMC8408929, “Influence of osmolality on gastrointestinal fluid volume and drug absorption: potential impact on oral salt supplementation” (Journal of Pharmaceutical Health Care and Sciences, 2021).

Experiments:
[1] = tested on: rat intestine (jejunum, ileum and colon); settings: male, Wistar, in vivo, 30 min, 10 μM
Method: The in situ rat intestinal closed loop method was carried out as described previously. Male Wistar rats (7–8 weeks old; 250 ± 20 g body weight) were fasted overnight and anesthetized by intraperitoneal injection of a triple anesthetic combination (medetomidine, midazolam and butorphanol). The abdominal cavity was opened and an intestinal loop (jejunum, 10 cm; ileum, 10 cm; colon, 7 cm) was made by cannulation into both ends of the jejunum, ileum and colon with silicone tubing (i.d., 3 mm). The intestinal contents were washed out through the cannulas with saline. […] One mL of test compound solution (10 μM) was introduced into the intestinal loop and both ends of the loop were ligated. […] The volume of luminal water (mL) in each segment of intestine was calculated using the following equation: 1 Vwater=Xout/Cout where Vwater (mL) is the water volume in each segment of intestine, Cout is the luminal concentration of test compound (μM), and Xout is the amount of test compound (μmol). The fraction absorbed of test compound was calculated from the remaining amount of test compound in each intestinal loop. Final results were normalized to the surface area calculated from the radius and length of each segment of intestine. […]

[2] = in vivo; settings: male, Wistar, rat, po, 1 mg/kg; for AUC(0-inf) / AUC(0-t) / Cmax / Tmax: plasma; for AUC(0-inf): AUC0-∞; for AUC(0-t): AUC0–7, rat
Excerpt: An Agilent Eclitse plus (C18, 50 × 2.1 mm, 5 μm) was used as the analytical column. […] Analyst software version 1.4.2 (AB SCIEX) was used for data manipulation.

[3] = oral ingestion of apple juice; cited from earlier work
[4] = oral 1 mg/kg (0.25 mg/mL) in hyperosmotic solution (10% NaCl)
[5] = oral 1 mg/kg (0.25 mg/mL) in purified water

SMILES: CC(C)NCC(O)COc1ccc(CC(N)=O)cc1 (centres unmarked) [atenolol]
- fraction absorbed [1]: 30.8% ± 1.2
- AUC0–7 with hyperosmotic solution, decreased to % of purified water ([2]; in vivo): 42.0%
- AUC(0-inf) [2, 4]: 92.9 ± 27.6 ng·h/mL
- AUC(0-inf) [2, 5]: 231 ± 11 ng·h/mL
- AUC(0-t) [2, 4]: 89 ± 25.4 ng·h/mL
- AUC(0-t) [2, 5]: 212 ± 11 ng·h/mL
- Cmax [2, 4]: 37.6 ± 9.2 ng/mL
- Cmax [2, 5]: 68.4 ± 4.7 ng/mL
- Tmax [2, 4]: 1.92 ± 0.08 h
- Tmax [2, 5]: 2.3 ± 0.3 h
- absorption of atenolol coadministered with apple juice [3]: decreased absorption
